Laboratory results taken from patent publication US20100330617A1 (Sanofi, published 2010).

Biological target: myc-tagged murine LIMP-2 (mouse)
Assay: co-immunoprecipitation from COS-7 cells co-transfected with LIMP-2-myc and mouse βGC, immunoblot

- binding: binds
B1: murine β-glucocerebrosidase (enzyme, mouse, UniProt P17439 20-515, looked up)
chain: AQPCIPKSFGYSSVVCVCNASYCDSLDPVTLPALGTFSRYESTRRGRRMELSVGAIQANRTGTGLLLTLQPEKKFQKVKGFGGAMTDATALNILALSPPTQKLLLRSYFSTNGIEYNIIRVPMASCDFSIRVYTYADTPNDFQLSNFSLPEEDTKLKIPLIHQALKMSSRPISLFASPWTSPTWLKTNGRVNGKGSLKGQPGDIFHQTWANYFVKFLDAYAKYGLRFWAVTAENEPTAGLFTGYPFQCLGFTPEHQRDFISRDLGPALANSSHDVKLLMLDDQRLLLPRWAEVVLSDPEAAKYVHGIAVHWYMDFLAPAKATLGETHRLFPNTMLFASEACVGSKFWEQSVRLGSWDRGMQYSHSIITNLLYHVTGWTDWNLALNPEGGPNWVRNFVDSPIIVDIPKDAFYKQPMFYHLGHFSKFIPEGSQRVALVASESTDLETVALLRPDGSAVVVVLNRSSEDVPLTISDPDLGFLETVSPGYSIHTYLWRRQ

These are yes or no findings as the source states them, for the method shown. Binding seen in cells or lysates may run through a third protein. A result given as binding can be weak or reduced; the word gives no strength. Where a sequence is shown, tags or fusion partners need not be part of it.
